# Measurements taken from the supplement of paper PMC5949888.
# Most values lie at the floor of the assay. Slopes are relative: functional sequences can read slightly below zero.
# System: Saccharomyces cerevisiae PS128 hsf1 delta, HSF1(1-493) fusion
# Assay: growth estimate (transactivation domain function in HSF1 fusion, heat-shock survival) (a.u. (slope of normalised read count over time)); higher = stronger growth at 37°C, i.e. more transactivation activity
# Conditions: library: random library
# Description: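 Random 60-nt DNA library encoding peptides of up to 20 aa, fused to the C-terminus of yeast HSF1 residues 1-493 (C-terminal TAD deleted) and expressed from the native HSF1 promoter on a CEN plasmid in hsf1-deleted S. cerevisiae PS128. Cells were selected at 37°C on -trp 5-FOA plates for 0, 2, 4, 6 and 8 days and amplicons were sequenced. Growth estimate is the slope of a robust linear fit of total-sum-normalised read counts (normalised to the first time point) over time, using at least 2 replicates. Sequences are classed functional (TAD activity) above a threshold of -0.13, set from stop-codon control sequences.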
row,Substance,growth estimate
1,WESSNDMEG,< -0.25
2,TSPAVDRCGLWCRSRHRTMG,< -0.25
3,RMGSICI,< -0.25
4,SRVFLTRR,< -0.25
5,RSEGALI,< -0.25
6,KLEPGARSPDSLCLNRFLSG,< -0.25
7,PNFGEGPLESCKSKEKIMGS,< -0.25
8,LPLLERAGGDPRCRNRRVCR,< -0.25
9,RLIPKGHSQVRGKETRERGR,< -0.25
10,QIL,< -0.25
11,WSCKRTAPRRLLIPTKSKPP,< -0.25
12,SEGGLGRWVGSITVVDGVTG,< -0.25
13,YDGWCCGTGGWLMQCSQVAP,< -0.25
14,YSDSDAEVEVPPALI,< -0.25
15,LLFTT,< -0.25
16,ATSLGGVIITPCR,< -0.25
17,GGRWLMKLFDGDIT,< -0.25
18,PFTNSSRERFV,-0.167
19,QVTLFEWYLAVPIAPSLTEL,< -0.25
20,GSSP,< -0.25
21,LMFAALGCYVPSGVHSPPLR,< -0.253
22,RYGVID,< -0.25
23,VPRGDCKCRG,< -0.25
24,EDGRQC,< -0.25

row,Substance,growth estimate
1,FFVRKVTDIGVMVQV,< -0.25
2,LGYWSGASPGSRRGGWERSA,< -0.25
3,GNGLKRFNVGMPGDCSWIVT,< -0.25
4,SACNTSGGRLTALFGFLFVS,< -0.25
5,SLAPGKPRVVNHRTRLMFLA,< -0.25
6,GSSLFHPLPTPRCRPPYQIM,< -0.25
7,FRVALRVKPFKLFR,< -0.25
8,PCGGGFKSSTVRASFRLTCL,< -0.25
9,MSVMSGRICTLNEQPARNPL,< -0.25
10,FVDSTGSTKFDSK,< -0.25
11,LKIRR,< -0.25
12,PIFGIDSIGCSA,< -0.25
13,TCRQGTD,< -0.25
14,GGLRRG,< -0.25
15,RTRKIGTEW,< -0.25
16,GYNSSGDTGPGARTFLLGSM,< -0.25
17,YLRIRHGVCAPFAPGHSGRS,< -0.25
18,VAIRGRSPSRL,< -0.25
19,PVGPSLQPLLARRWSTS,< -0.25
20,NLDTIRL,< -0.25
21,VTYHEVAALEL,< -0.25
22,TNLGCDVYAHRMARMVDLRP,< -0.25
23,PNPGTGAAWSPGGHWMRAKV,< -0.25
24,LREYPRSRVGYGSLITGVKR,< -0.25

row,Substance,growth estimate
1,FRAVSDRWMDRSLQHYG,< -0.25
2,VLTFFRGIAKWGRRLSQGPW,< -0.25
3,IYWGIVPVITAKVLDVPGQA,< -0.25
4,CFVQQGGDCLVHLLLNVILR,< -0.25
5,PLEFPHRTGTGSTKTRRLRP,< -0.25
6,DSRGCLSRESRQVQNGVSRL,-0.243
7,YCRGAVGPLTAQRSLCPDLV,< -0.25
8,AISSLPREVEV,< -0.25
9,EVLD,< -0.25
10,VRRGRCVLSS,< -0.25
11,HRSRLQTQGRVGLVIVCRVC,< -0.25
12,DTRDDPGGIEST,< -0.25
13,PLAKN,< -0.25
14,RGAGISTPSASKVLSSYNGK,< -0.25
15,SSSHGKRLPN,-0.226
16,TPRYRDVEVPPHWDRLLSPL,< -0.25
17,VQRVRATKGTMNDSALGKLW,< -0.25
18,GYTPLEGLTTAA,< -0.25
19,VAQSRNESGPT,< -0.25
20,SLYAGL,< -0.25
21,CHHIRRRY,< -0.25
22,ADRSVNRLRVRVRSSSQARV,-0.207
23,GAGCSGKRTDVKANS,< -0.25
24,VEEFR,< -0.25

# 5 entries picked at random from the list so far, as already listed:
row,Substance,growth estimate
1,FRAVSDRWMDRSLQHYG,< -0.25
16,TPRYRDVEVPPHWDRLLSPL,< -0.25
23,GAGCSGKRTDVKANS,< -0.25
14,RGAGISTPSASKVLSSYNGK,< -0.25
17,VQRVRATKGTMNDSALGKLW,< -0.25

# Carrying on:

row,Substance,growth estimate
1,VLGGSPGE,< -0.25
2,GMPIGLAGMRKTCSA,< -0.25
3,QRTERMVLLWLDF,< -0.25
4,ALSSAASCVLNSIVDYLCPT,< -0.25
5,TNEIALQQKATFPVCSRAMS,< -0.25
6,LVLEIGTLTFRKRRKPTRPR,< -0.25
7,QLLSHLCD,< -0.25
8,FGIIRNDEVEAGAPTGHGAA,< -0.25
9,YVQMTIDWGCSIVAFAPGAT,< -0.25
10,NHGTKKERRAGINTYLPQNG,-0.231
11,KEARA,< -0.25
12,DVGPAA,< -0.25
13,DLSVAGPLGQRRLSPPSVRW,< -0.25
14,IDPSGLDTRHPAQSEDAPSL,< -0.25
15,RGGRRTFPAFVFRVTNRSEC,< -0.25
16,GLCSRSENDWGRPHYVGRCW,< -0.25
17,KMWNSATQMEAHFLAAKWHT,-0.246
18,DSVIDSLSGSRGSRG,< -0.25
19,EVRNGV,< -0.25
20,DQRSNRFNSRK,< -0.25
21,GGFGGGSISNSYDRGIHASG,< -0.25
22,YTKPPQLFLSELMPVGRELL,< -0.25
23,TFESVNPAFASTRVRRA,< -0.25
